In article doi:10.1101/2024.12.19.629515 one finds binding data, which are given here for 13 molecules.

Chains of the proteins cited; added tags and fusions are not shown. Lines headed by an entry give the natural chain unless they say otherwise; changes in a name come on top. Residues count along the entry.
UniProt O22476, 24-1196: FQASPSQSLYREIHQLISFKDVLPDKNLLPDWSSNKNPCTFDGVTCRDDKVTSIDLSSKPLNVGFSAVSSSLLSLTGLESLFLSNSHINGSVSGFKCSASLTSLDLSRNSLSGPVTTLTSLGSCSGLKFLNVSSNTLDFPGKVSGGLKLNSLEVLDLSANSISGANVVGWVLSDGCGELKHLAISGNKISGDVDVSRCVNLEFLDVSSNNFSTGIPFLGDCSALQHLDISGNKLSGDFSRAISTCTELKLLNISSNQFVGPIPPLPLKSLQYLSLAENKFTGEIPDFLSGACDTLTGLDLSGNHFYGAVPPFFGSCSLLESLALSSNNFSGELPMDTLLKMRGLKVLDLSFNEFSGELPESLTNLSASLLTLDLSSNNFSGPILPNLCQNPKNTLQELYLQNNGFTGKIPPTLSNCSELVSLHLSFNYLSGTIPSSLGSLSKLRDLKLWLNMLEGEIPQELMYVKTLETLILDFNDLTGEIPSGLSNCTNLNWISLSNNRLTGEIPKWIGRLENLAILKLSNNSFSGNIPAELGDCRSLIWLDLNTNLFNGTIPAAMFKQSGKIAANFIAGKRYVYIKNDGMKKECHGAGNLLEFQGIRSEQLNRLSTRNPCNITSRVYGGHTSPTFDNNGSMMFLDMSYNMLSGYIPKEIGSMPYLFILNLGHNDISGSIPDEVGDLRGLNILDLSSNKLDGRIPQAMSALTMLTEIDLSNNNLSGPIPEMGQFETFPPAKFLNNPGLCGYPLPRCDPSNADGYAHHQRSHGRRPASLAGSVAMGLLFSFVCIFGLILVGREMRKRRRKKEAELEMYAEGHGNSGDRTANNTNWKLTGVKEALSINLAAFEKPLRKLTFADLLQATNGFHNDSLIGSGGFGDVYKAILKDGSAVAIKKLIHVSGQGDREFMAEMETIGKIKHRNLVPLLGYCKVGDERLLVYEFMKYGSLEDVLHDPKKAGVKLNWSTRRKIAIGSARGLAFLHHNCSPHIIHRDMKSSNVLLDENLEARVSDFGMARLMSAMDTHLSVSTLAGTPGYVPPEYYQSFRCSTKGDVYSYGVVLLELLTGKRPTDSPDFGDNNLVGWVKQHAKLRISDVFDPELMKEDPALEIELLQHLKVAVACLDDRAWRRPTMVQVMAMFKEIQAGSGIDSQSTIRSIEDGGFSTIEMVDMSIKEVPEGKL
UniProt O22476, whole entry, looked up, stated change not applied: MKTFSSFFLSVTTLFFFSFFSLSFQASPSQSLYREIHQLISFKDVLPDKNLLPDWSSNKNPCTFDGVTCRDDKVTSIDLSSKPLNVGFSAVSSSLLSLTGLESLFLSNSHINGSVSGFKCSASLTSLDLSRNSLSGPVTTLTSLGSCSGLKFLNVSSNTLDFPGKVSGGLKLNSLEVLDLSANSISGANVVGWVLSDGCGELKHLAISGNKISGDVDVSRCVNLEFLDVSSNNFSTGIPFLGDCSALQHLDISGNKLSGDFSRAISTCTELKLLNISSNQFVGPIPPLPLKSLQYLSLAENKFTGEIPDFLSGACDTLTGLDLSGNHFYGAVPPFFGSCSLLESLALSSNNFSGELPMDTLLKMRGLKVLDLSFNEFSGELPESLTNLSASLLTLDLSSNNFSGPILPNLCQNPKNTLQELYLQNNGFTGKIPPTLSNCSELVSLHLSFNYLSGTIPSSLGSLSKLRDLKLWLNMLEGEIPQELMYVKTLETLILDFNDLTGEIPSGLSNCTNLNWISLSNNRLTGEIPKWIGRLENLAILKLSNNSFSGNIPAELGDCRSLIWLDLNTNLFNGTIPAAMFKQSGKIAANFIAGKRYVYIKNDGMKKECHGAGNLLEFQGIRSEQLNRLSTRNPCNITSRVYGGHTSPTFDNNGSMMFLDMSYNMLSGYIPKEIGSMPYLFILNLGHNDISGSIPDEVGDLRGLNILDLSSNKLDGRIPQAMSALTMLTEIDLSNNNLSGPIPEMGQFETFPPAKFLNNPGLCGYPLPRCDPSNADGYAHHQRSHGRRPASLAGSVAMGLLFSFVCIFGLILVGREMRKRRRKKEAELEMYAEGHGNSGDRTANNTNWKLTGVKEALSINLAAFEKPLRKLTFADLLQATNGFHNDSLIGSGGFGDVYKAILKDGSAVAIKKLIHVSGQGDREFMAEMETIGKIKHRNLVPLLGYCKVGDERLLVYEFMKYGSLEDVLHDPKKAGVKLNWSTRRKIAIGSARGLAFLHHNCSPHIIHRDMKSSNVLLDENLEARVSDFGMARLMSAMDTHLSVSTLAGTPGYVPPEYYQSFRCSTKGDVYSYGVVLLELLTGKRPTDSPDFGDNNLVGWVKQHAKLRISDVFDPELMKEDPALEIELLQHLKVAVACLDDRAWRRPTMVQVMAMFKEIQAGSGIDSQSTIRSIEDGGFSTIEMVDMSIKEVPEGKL
UniProt Q9LN63, whole entry: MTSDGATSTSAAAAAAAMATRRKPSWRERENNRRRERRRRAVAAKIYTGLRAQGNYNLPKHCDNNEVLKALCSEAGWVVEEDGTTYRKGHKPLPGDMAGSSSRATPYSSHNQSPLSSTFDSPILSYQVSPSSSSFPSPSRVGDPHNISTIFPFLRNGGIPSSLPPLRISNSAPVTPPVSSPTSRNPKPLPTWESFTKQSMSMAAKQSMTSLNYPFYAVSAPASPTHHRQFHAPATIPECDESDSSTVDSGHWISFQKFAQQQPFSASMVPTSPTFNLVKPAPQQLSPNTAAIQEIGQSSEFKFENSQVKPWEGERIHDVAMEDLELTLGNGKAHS
UniProt Q96299, whole entry: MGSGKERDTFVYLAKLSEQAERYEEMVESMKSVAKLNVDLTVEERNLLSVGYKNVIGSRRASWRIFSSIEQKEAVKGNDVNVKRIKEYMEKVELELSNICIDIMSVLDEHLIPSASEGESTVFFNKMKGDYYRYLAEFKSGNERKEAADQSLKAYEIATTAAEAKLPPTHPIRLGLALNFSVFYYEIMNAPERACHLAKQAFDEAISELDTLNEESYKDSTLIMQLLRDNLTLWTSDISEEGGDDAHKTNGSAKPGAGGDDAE

The target of experiment [1] is HA-tagged BRI1 (BRI1-HA) (Arabidopsis thaliana) (UniProt O22476). As to the kind of experiment: co-IP.
Experiment [2] concerns the target BRI1-cYFP (Arabidopsis thaliana) (UniProt O22476). As to the kind of experiment: split reporter.
Experiment [3] concerns the target BRI1-mCitrine (BRI1-mCit) (Arabidopsis thaliana) (UniProt O22476). In words: co-IP.
Experiment [4] has as its target BRI1-GFP (Arabidopsis thaliana) (UniProt O22476). As to the kind of experiment: co-IP.
In experiment [5] the target is BES1-S-GFP (Arabidopsis thaliana) (UniProt Q9LN63). As to the kind of experiment: co-IP.
The target in experiment [6] is T1, BKI1-GFP (Arabidopsis thaliana) (UniProt Q9FMZ0).
T1 sequence: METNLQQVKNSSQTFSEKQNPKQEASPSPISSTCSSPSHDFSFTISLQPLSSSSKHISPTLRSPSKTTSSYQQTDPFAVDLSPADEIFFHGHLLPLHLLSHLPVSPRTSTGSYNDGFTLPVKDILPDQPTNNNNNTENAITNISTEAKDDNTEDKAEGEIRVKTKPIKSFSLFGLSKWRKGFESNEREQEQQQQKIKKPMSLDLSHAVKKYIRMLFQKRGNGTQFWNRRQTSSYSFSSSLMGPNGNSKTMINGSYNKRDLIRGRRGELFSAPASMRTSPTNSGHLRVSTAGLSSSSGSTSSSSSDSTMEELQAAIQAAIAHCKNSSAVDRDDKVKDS
In words: co-IP.

The target in experiment [7] is BRI1^S858A;T872A-mCitrine (BRI1^S858A;T872A-mCit) (Arabidopsis thaliana) (UniProt O22476). In words: co-IP.

Results are given in words; binding and its absence hold for the method and conditions named. Binding seen in cells or lysates may run through a third protein. Some results given as binding are weak or reduced against the parent protein; the word gives no strength. Sequences can lack the tags named with a protein.

In the case of “GFP-tagged GRF9 (GRF9-GFP) (from UniProt Q96299 1-263)”, in experiment [1], the binding result is given as “binds”.

B1: GFP-tagged GRF6 (GRF6-GFP) (protein, UniProt P48349 1-248)
chain: MAATLGRDQYVYMAKLAEQAERYEEMVQFMEQLVTGATPAEELTVEERNLLSVAYKNVIGSLRAAWRIVSSIEQKEESRKNDEHVSLVKDYRSKVESELSSVCSGILKLLDSHLIPSAGASESKVFYLKMKGDYHRYMAEFKSGDERKTAAEDTMLAYKAAQDIAAADMAPTHPIRLGLALNFSVFYYEILNSSDKACNMAKQAFEEAIAELDTLGEESYKDSTLIMQLLRDNLTLWTSDMQEQMDEA
On to B1, for which the binding result in experiment [1] is “binds”.

B2: GRF6-nYFP (protein, UniProt P48349 1-248)
chain: MAATLGRDQYVYMAKLAEQAERYEEMVQFMEQLVTGATPAEELTVEERNLLSVAYKNVIGSLRAAWRIVSSIEQKEESRKNDEHVSLVKDYRSKVESELSSVCSGILKLLDSHLIPSAGASESKVFYLKMKGDYHRYMAEFKSGDERKTAAEDTMLAYKAAQDIAAADMAPTHPIRLGLALNFSVFYYEILNSSDKACNMAKQAFEEAIAELDTLGEESYKDSTLIMQLLRDNLTLWTSDMQEQMDEA
In the case of B2, the binding result in experiment [2] is given as “binds weakly”.

B3: GRF6-HA (protein, UniProt P48349 1-248)
chain: MAATLGRDQYVYMAKLAEQAERYEEMVQFMEQLVTGATPAEELTVEERNLLSVAYKNVIGSLRAAWRIVSSIEQKEESRKNDEHVSLVKDYRSKVESELSSVCSGILKLLDSHLIPSAGASESKVFYLKMKGDYHRYMAEFKSGDERKTAAEDTMLAYKAAQDIAAADMAPTHPIRLGLALNFSVFYYEILNSSDKACNMAKQAFEEAIAELDTLGEESYKDSTLIMQLLRDNLTLWTSDMQEQMDEA
Turning to B3, the binding result in experiment [3], in experiment [4] and in experiment [5] was “binds” throughout.

B4: GRF6-3xFlag (protein, UniProt P48349 1-248)
chain: MAATLGRDQYVYMAKLAEQAERYEEMVQFMEQLVTGATPAEELTVEERNLLSVAYKNVIGSLRAAWRIVSSIEQKEESRKNDEHVSLVKDYRSKVESELSSVCSGILKLLDSHLIPSAGASESKVFYLKMKGDYHRYMAEFKSGDERKTAAEDTMLAYKAAQDIAAADMAPTHPIRLGLALNFSVFYYEILNSSDKACNMAKQAFEEAIAELDTLGEESYKDSTLIMQLLRDNLTLWTSDMQEQMDEA
For B4, in experiment [6], the binding entry is on record as “binds”.

B5: GFP-tagged GRF2 (GRF2-GFP) (protein, UniProt Q01525 1-259)
chain: MASGREEFVYMAKLAEQAERYEEMVEFMEKVSAAVDGDELTVEERNLLSVAYKNVIGARRASWRIISSIEQKEESRGNDDHVTAIREYRSKIETELSGICDGILKLLDSRLIPAAASGDSKVFYLKMKGDYHRYLAEFKTGQERKDAAEHTLAAYKSAQDIANAELAPTHPIRLGLALNFSVFYYEILNSPDRACNLAKQAFDEAIAELDTLGEESYKDSTLIMQLLRDNLTLWTSDMQDDAADEIKEAAAPKPTEEQQ
Take B5: the binding entry in experiment [1] is recorded as “binds”.

B6: GFP-tagged GRF3 (GRF3-GFP) (protein, UniProt P42644 1-255)
chain: MSTREENVYMAKLAEQAERYEEMVEFMEKVAKTVDVEELSVEERNLLSVAYKNVIGARRASWRIISSIEQKEESKGNEDHVAIIKDYRGKIESELSKICDGILNVLEAHLIPSASPAESKVFYLKMKGDYHRYLAEFKAGAERKEAAESTLVAYKSASDIATAELAPTHPIRLGLALNFSVFYYEILNSPDRACSLAKQAFDDAIAELDTLGEESYKDSTLIMQLLRDNLTLWTSDMTDEAGDEIKEASKPDGAE
In the case of B6, in experiment [1], the binding entry was “binds”.

B7: GFP-tagged GRF5 (GRF5-GFP) (protein, UniProt P42645 1-268)
chain: MSSDSSREENVYLAKLAEQAERYEEMVEFMEKVAKTVETEELTVEERNLLSVAYKNVIGARRASWRIISSIEQKEDSRGNSDHVSIIKDYRGKIETELSKICDGILNLLEAHLIPAASLAESKVFYLKMKGDYHRYLAEFKTGAERKEAAESTLVAYKSAQDIALADLAPTHPIRLGLALNFSVFYYEILNSSDRACSLAKQAFDEAISELDTLGEESYKDSTLIMQLLRDNLTLWTSDLNDEAGDDIKEAPKEVQKVDEQAQPPPSQ
For B7, the binding result in experiment [1] was “binds”.

B8: BKI1-nYFP (protein, UniProt Q9FMZ0 1-337)
chain: METNLQQVKNSSQTFSEKQNPKQEASPSPISSTCSSPSHDFSFTISLQPLSSSSKHISPTLRSPSKTTSSYQQTDPFAVDLSPADEIFFHGHLLPLHLLSHLPVSPRTSTGSYNDGFTLPVKDILPDQPTNNNNNTENAITNISTEAKDDNTEDKAEGEIRVKTKPIKSFSLFGLSKWRKGFESNEREQEQQQQKIKKPMSLDLSHAVKKYIRMLFQKRGNGTQFWNRRQTSSYSFSSSLMGPNGNSKTMINGSYNKRDLIRGRRGELFSAPASMRTSPTNSGHLRVSTAGLSSSSGSTSSSSSDSTMEELQAAIQAAIAHCKNSSAVDRDDKVKDS
As for B8, the binding result in experiment [2] is given as “binds”.

B9: GFP-tagged GRF11 (GRF11-GFP) (protein, UniProt Q9S9Z8 1-252)
chain: MENERAKQVYLAKLNEQAERYDEMVEAMKKVAALDVELTIEERNLLSVGYKNVIGARRASWRILSSIEQKEESKGNEQNAKRIKDYRTKVEEELSKICYDILAVIDKHLVPFATSGESTVFYYKMKGDYFRYLAEFKSGADREEAADLSLKAYEAATSSASTELSTTHPIRLGLALNFSVFYYEILNSPERACHLAKRAFDEAIAELDSLNEDSYKDSTLIMQLLRDNLTLWTSDLEEGGEQSKGHNQQDEN
On to B9, for which the binding entry in experiment [1] is on record as “binds”.

B10: PUB13-HA (enzyme, UniProt Q9SNC6 1-660)
chain: MEEEKASAAQSLIDVVNEIAAISDYRITVKKLCYNLARRLKLLVPMFEEIRESNEPISEDTLKTLMNLKEAMCSAKDYLKFCSQGSKIYLVMEREQVTSKLMEVSVKLEQSLSQIPYEELDISDEVREQVELVLSQFRRAKGRVDVSDDELYEDLQSLCNKSSDVDAYQPVLERVAKKLHLMEIPDLAQESVALHEMVASSGGDVGENIEEMAMVLKMIKDFVQTEDDNGEEQKVGVNSRSNGQTSTAASQKIPVIPDDFRCPISLEMMRDPVIVSSGQTYERTCIEKWIEGGHSTCPKTQQALTSTTLTPNYVLRSLIAQWCEANDIEPPKPPSSLRPRKVSSFSSPAEANKIEDLMWRLAYGNPEDQRSAAGEIRLLAKRNADNRVAIAEAGAIPLLVGLLSTPDSRIQEHSVTALLNLSICENNKGAIVSAGAIPGIVQVLKKGSMEARENAAATLFSLSVIDENKVTIGALGAIPPLVVLLNEGTQRGKKDAATALFNLCIYQGNKGKAIRAGVIPTLTRLLTEPGSGMVDEALAILAILSSHPEGKAIIGSSDAVPSLVEFIRTGSPRNRENAAAVLVHLCSGDPQHLVEAQKLGLMGPLIDLAGNGTDRGKRKAAQLLERISRLAEQQKETAVSQPEEEAEPTHPESTTEAADT
For B10, the binding result in experiment [3] and in experiment [7] was “binds” each time.

B11: BAK1 (endogenous) (receptor, UniProt Q94F62 26-615)
chain: NAEGDALSALKNSLADPNKVLQSWDATLVTPCTWFHVTCNSDNSVTRVDLGNANLSGQLVMQLGQLPNLQYLELYSNNITGTIPEQLGNLTELVSLDLYLNNLSGPIPSTLGRLKKLRFLRLNNNSLSGEIPRSLTAVLTLQVLDLSNNPLTGDIPVNGSFSLFTPISFANTKLTPLPASPPPPISPTPPSPAGSNRITGAIAGGVAAGAALLFAVPAIALAWWRRKKPQDHFFDVPAEEDPEVHLGQLKRFSLRELQVASDNFSNKNILGRGGFGKVYKGRLADGTLVAVKRLKEERTQGGELQFQTEVEMISMAVHRNLLRLRGFCMTPTERLLVYPYMANGSVASCLRERPESQPPLDWPKRQRIALGSARGLAYLHDHCDPKIIHRDVKAANILLDEEFEAVVGDFGLAKLMDYKDTHVTTAVRGTIGHIAPEYLSTGKSSEKTDVFGYGVMLLELITGQRAFDLARLANDDDVMLLDWVKGLLKEKKLEALVDVDLQGNYKDEEVEQLIQVALLCTQSSPMERPKMSEVVRMLEGDGLAERWEEWQKEEMFRQDFNYPTHHPAVSGWIIGDSTSQIENEYPSGPR
For the molecule B11, the binding result in experiment [3] and in experiment [7] was “binds” throughout.

B12: GFP-tagged GRF10 (GRF10-GFP) (protein, UniProt P48347 1-254)
chain: MENEREKQVYLAKLSEQTERYDEMVEAMKKVAQLDVELTVEERNLVSVGYKNVIGARRASWRILSSIEQKEESKGNDENVKRLKNYRKRVEDELAKVCNDILSVIDKHLIPSSNAVESTVFFYKMKGDYYRYLAEFSSGAERKEAADQSLEAYKAAVAAAENGLAPTHPVRLGLALNFSVFYYEILNSPESACQLAKQAFDDAIAELDSLNEESYKDSTLIMQLLRDNLTLWTSDLNEEGDERTKGADEPQDEN
For B12, in experiment [1], the binding entry is “binds”.
